Consider one substance from doi:10.1101/2021.04.26.439973.

The chains behind the UniProt entries cited, without tags or fusion partners. Residues count along the entry.
UniProt P20023, residues 21-1033: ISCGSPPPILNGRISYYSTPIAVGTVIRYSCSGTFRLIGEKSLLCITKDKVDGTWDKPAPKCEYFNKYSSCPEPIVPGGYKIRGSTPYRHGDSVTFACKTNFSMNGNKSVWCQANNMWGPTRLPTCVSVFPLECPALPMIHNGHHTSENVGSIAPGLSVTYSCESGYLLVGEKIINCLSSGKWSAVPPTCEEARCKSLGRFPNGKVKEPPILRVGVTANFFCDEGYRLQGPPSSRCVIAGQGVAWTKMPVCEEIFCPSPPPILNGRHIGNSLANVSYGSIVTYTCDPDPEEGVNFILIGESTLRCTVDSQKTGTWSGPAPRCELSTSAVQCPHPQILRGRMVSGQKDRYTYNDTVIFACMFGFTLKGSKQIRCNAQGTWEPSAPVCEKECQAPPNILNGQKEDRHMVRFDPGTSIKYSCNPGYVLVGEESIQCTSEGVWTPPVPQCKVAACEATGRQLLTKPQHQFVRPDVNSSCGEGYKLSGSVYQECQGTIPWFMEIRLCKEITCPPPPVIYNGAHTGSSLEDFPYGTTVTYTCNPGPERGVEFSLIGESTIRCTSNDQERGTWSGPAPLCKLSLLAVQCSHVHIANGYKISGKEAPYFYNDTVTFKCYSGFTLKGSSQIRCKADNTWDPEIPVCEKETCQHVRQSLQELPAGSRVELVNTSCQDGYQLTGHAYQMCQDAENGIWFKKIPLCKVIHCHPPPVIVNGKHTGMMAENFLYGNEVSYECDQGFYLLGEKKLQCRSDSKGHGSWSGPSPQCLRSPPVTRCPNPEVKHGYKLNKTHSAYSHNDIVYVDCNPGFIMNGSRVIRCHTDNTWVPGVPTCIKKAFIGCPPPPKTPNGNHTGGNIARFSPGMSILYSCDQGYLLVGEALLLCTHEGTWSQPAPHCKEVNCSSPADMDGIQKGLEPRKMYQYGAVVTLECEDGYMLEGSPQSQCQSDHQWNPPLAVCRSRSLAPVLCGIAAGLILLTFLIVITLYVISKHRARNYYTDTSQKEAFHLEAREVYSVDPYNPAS

Results are given in words; binding and its absence hold for the method and conditions named. Some binding calls cover weakened binding; strength is not graded here.

This assay addresses CD21 receptor, the complement receptor 2 (CR2) (human (endogenous in Elijah cells)) (UniProt P20023). Briefly: flow cytometry on cells.

For “viral gp350 protein encoded by BLLF1 (Epstein-Barr virus, B95.8 strain, recombinant 2089) (from UniProt P03200-1 1-907)”, the binding result is listed as “binds”.
